# Measured values reported in the supplement of paper PMC3334620.
# In all, about 33,000 sequences were measured (“E-score (-0.5 to 0.5)”: median about -0.0059, highest 2% from about 0.26 on). The list shows a part of the results.
# Molecular target: T1, Cin5 (UniProt P40917)
# T1 sequence: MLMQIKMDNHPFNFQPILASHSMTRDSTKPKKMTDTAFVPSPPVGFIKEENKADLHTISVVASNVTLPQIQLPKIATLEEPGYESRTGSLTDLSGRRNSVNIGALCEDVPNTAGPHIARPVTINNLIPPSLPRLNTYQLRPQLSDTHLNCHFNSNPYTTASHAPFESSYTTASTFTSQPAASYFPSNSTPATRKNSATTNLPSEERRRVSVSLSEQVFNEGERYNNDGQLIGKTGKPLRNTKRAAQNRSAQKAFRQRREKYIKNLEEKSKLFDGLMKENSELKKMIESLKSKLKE
# Test: PBM E-score (8-mer binding enrichment) (E-score (-0.5 to 0.5)); higher = stronger / more preferred TF binding
# Conditions: protein concentration: 100 nM; construct: GST-full length
# Outline: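 Masliner-normalised scans of fluorescent anti-GST signal were the basis for scoring. That signal came from GST-tagged yeast transcription factors applied at about 100-200 nM to double-stranded universal all-10-mer Agilent arrays on fresh or once-stripped slides. Each ungapped eight-base word, pooled with its reverse complement, received an E-score from the Universal PBM Analysis Suite.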
row,Sequence,PBM E-score
1,CAGGGCAC,-0.0408
2,GCAGTACC,-0.0675
3,AGTAATAG,0.279
4,CTCGACTA,-0.104
5,CGATGGCC,-0.0987
6,AGGGGCCA,-0.0617
7,CGTAAGCC,0.39
8,GTAGGTGA,-0.0618
9,TCAGATGA,0.131
10,CCCACTAG,-0.177
11,GTGAGCTA,0.0179
12,CACATCGC,-0.06
13,AAAACGTC,0.0526
14,AAAGCCAC,-0.0749
15,AGGCCCGC,0.0122
16,GTCAAAAC,0.0876
17,GATAGTAA,0.195
18,TATGTACA,0.18
19,ACTGCCTC,0.0135
20,CAAGACCG,-0.11
21,CTCTGAAG,-0.265
22,CATGAGAC,-0.0853
23,ATCATCCA,0.217
24,AACCGTCT,-0.303
25,TGGCCTAA,-0.0968

# Taken from above:
# Entry of TCAGATGA under PBM E-score: 0.131
# Entry of ACTGCCTC under PBM E-score: 0.0135
# Entry of CGTAAGCC under PBM E-score: 0.39
# Entry of CATGAGAC under PBM E-score: -0.0853

# Next part.

row,Sequence,PBM E-score
1,TGCATCAA,0.153
2,ATATAAAG,0.137
3,GGCGCATA,0.102
4,TGACTGCA,-0.134
5,CTGGAGAC,-0.0883
6,AAAGGACG,-0.0147
7,AAAAATTG,-0.0306
8,CGACATAG,0.00383
9,TGGCATAA,0.221
10,CGTACGCA,-0.0964
11,TCCTGCAA,0.00323
12,GGGGCGAC,-0.0471
13,AACCATTC,-0.0296
14,ACATCGCC,0.113
15,CAATGCCA,0.0656
16,CGTTCTTA,0.0141
17,CGCCATAC,-0.0043
18,AGTTTTAT,0.149
19,CCGAAGTA,0.079
20,TAGAAGAA,-0.158
21,AATCAACT,0.17
22,CAAATAAC,0.247
23,ACTGTGCT,-0.0523
24,AGACCCGG,-0.0715
25,CGGTGAGA,0.121

row,Sequence,PBM E-score
1,ACCCGAGA,0.0718
2,CAATACAC,0.00745
3,CACTGGCG,-0.0347
4,GGGCCTAC,-0.301
5,ATGTCCCG,0.0449
6,GCACCACC,-0.0982
7,CCTACAAA,-0.0136
8,GCCGTAGC,-0.187
9,CGTCAGAG,0.00218
10,GTGTTACA,-0.0531
11,GACGACAA,0.25
12,AAACGCTA,-0.192
13,AGGCGATA,-0.024
14,AGCCGCCA,-0.254
15,TCACGGAA,0.205
16,AAGCATCC,-0.078
17,CGGGCTCA,-0.312
18,CTATTAAG,-0.041
19,CGGAGACC,-0.167
20,CTGACAGA,0.125
21,AACCACAC,0.136
22,TATCAATA,0.0764
23,AGTAAAAT,0.0398
24,ATTGGAAA,0.0806
25,GCCTAACA,-0.00038

row,Sequence,PBM E-score
1,GTACCTTA,0.0338
2,CAATGCAA,0.0944
3,ATGATACC,0.0985
4,AACGCTGC,-0.0849
5,AGGGAGAT,-0.252
6,AAGTGAAC,0.0529
7,CAAATGTG,0.146
8,ACAAAAGC,0.101
9,GTGCTCCA,-0.145
10,GCACACAA,0.117
11,AAGTGTCA,-0.1
12,GCTCGTAA,0.0314
13,ACTCGGCA,0.0653
14,GCCACTAA,-0.0361
15,AATCCAAG,0.155
16,TACCTATA,0.0396
17,TCCGGACA,0.0244
18,AAGTAAAA,0.0101
19,CCGTACCC,-0.204
20,CGCCGCCA,-0.173
21,AAAACCTA,0.113
22,GTTTAATA,0.143
23,ACTGACTA,-0.0429
24,AAGCCGAA,0.00408
25,ACCTCTAT,0.0973

row,Sequence,PBM E-score
1,ATGGCCTC,-0.0373
2,AACCGAGC,0.0779
3,AGCGAGTC,-0.127
4,AGTGCAAG,0.121
5,GAGCGCCC,-0.255
6,CACAATTC,0.192
7,TACATAAA,0.323
8,GAGAATGC,0.0997
9,ACAACGCC,0.0607
10,TCAATAGA,0.0561
11,CCCCAAGC,0.138
12,CGGCCGAG,-0.0567
13,CCTAGGGA,-0.129
14,GTGCGATA,0.0251
15,ACTATGTA,0.202
16,ATGACTTG,0.0388
17,TCCTCCAA,-0.129
18,CTGAACTC,-0.0745
19,ATGACTGC,0.0331
20,GAGTGTGC,0.0118
21,ACTCCAAT,-0.0347
22,GCGTGAAA,0.0212
23,AATACCCG,0.03
24,ATCTTCGA,0.122
25,CTGGCAAA,0.0466

row,Sequence,PBM E-score
1,GCCCACGA,-0.116
2,GAGTAAAA,0.0903
3,ACTAAATG,0.0519
4,CAGGAAGC,0.0437
5,GCGTGCAA,-0.123
6,AAGCTGGG,-0.015
7,AGTGCCAC,-0.0861
8,AAAACCGG,0.121
9,AGATGTCC,-0.085
10,CTAAGACC,0.0759
11,CTCCATAA,-0.17
12,AAGTGCCG,-0.161
13,GCTGGACA,-0.0762
14,AGAGCCAA,-0.115
15,TGGGACCA,-0.166
16,AAAAAACC,-0.0523
17,CTCTTCGA,-0.0303
18,CCGCGAGG,0.128
19,AGCGGACG,0.0406
20,AGTCTCCC,-0.0801
21,CGCTGAAA,-0.164
22,AGCTATAT,0.211
23,GGGCGAGA,-0.0451
24,TCAATTCA,0.0881
25,GCCTCCTA,-0.264

row,Sequence,PBM E-score
1,CCCTTCCC,-0.22
2,TAGCCTAA,-0.179
3,ACTGGTGC,-0.113
4,GAGGCGGC,-0.107
5,GTAGGGAC,-0.143
6,CATATGAG,0.158
7,GGCAGGAA,-0.124
8,GTACGGTA,0.0983
9,ACCAAGAC,0.00964
10,ATCCGAAA,-0.064
11,AACTCACG,-0.00371
12,TAGTGAGA,0.0693
13,CCTATACG,-0.275
14,TAGTTCAA,0.0474
15,AGTGGTCG,-0.0941
16,GGAGTCCC,-0.155
17,ATCTAACA,0.0569
18,ATGGAGCG,-0.0149
19,GGGAAGGA,-0.137
20,CGGCGGTA,0.099
21,GTTATAGA,-0.0531
22,AAAAAATG,0.197

# A different layout for part of the listing above:
row | Sequence | PBM E-score
2 | CAATACAC | 0.00745
21 | AAAACCTA | 0.113
2 | TAGCCTAA | -0.179
16 | GGAGTCCC | -0.155
